Data as given in PubChem BioAssay AID1671195 (Yale University, 2021)

Aim: 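Regulators of LDL receptor activity judged by labelled LDL uptake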 (primary screen)
Cells: human Huh7 hepatoma cells
Knock-down reagent: siRNA pool against human genes, 18 nM
Time to read-out: about 2 to 2.5 days of knockdown, then 8 h LDL uptake
Challenge: DiI-labelled LDL at 30 µg/ml for 8 h, in lipoprotein-deficient serum medium
Read-out: 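Per-cell DiI-LDL intensity by automated imaging; well means scaled to the plate median and given as a robust z-score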
Direction: robust z-score: higher = more LDL uptake after knockdown
Hit rule: 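a gene counts as active if at least two replicate z-scores exceed ±2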
The whole screen tested about 22,000 reagents; below is a part drawn at random. About 1,510 of them (6.9%) were called active. 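Active includes knockdowns raising or lowering LDL uptake; positive z-scores mean more uptake, negative mean less.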

gene | robust z-score, replicate 1 | robust z-score, replicate 2 | robust z-score, replicate 3 | call
SH2D3C | 1.2 | -0.659 | -0.207 | inactive
NUDCD1 | -0.0831 | -0.0608 | -0.354 | inactive
AMY1A | -1.71 | -1.35 | -1.29 | inactive
SREBF2 | 4.06 | 2.68 | 3.27 | active
LNX1 | 0.868 | 1.23 | 0.262 | inactive
ZSCAN10 | 1.99 | 2.15 | 1.46 | active
LOC401700 (retired record) | -0.725 | -2.94 | -1.06 | inactive
LOC441450 (retired record) | -1.16 | -1.39 | -0.861 | inactive
ZNF10 | -0.926 | -0.5 | -1.16 | inactive
LOC219638 (retired record) | -0.252 | -0.569 | -0.348 | inactive
PNO1 | -1.29 | 0.34 | -0.656 | inactive
TIPE2 | 0.288 | 0.888 | -0.066 | inactive
EXOC5 | 1.61 | 1.6 | 2.46 | inactive
C10orf143 | -0.709 | -0.91 | -1.12 | inactive
EZR | -1.06 | -2.16 | -0.78 | inactive
GALNT8 | -0.361 | 1.66 | -0.507 | inactive
CYP3A4 | -0.316 | -0.324 | -0.849 | inactive
LOC388365 (retired record) | 1.07 | 1.23 | 1.32 | inactive
RPL17P20 | -0.477 | -0.516 | -0.553 | inactive
LOC133993 (retired record) | 0.362 | 1.54 | 0.195 | inactive
ANKRD1 | -0.746 | -0.415 | -0.63 | inactive
PWWP2A | 0.374 | -1.4 | -0.59 | inactive
PDPR2P | 2.19 | 2.17 | 2.33 | active
HSPA1A | 3.3 | 2.94 | 2.78 | active
LOC286297 | 0.633 | -0.177 | 0.265 | inactive
CBX6 | -0.82 | -1.61 | -0.346 | inactive
CTSV | -0.207 | -0.832 | -0.529 | inactive
COL14A1 | 0.085 | -0.386 | -0.125 | inactive
SLC2A7 | 0.194 | 0.431 | 1.12 | inactive
SYNCRIP | 0.228 | 0.9 | 0.448 | inactive
SENP7 | -1.47 | -0.802 | -1.32 | inactive
CDCA3 | 1.84 | 0.94 | 0.594 | inactive
FIZ1 | -0.54 | -1.08 | -0.894 | inactive
C6orf132 | 1.48 | 1.17 | 2.21 | inactive
AP4B1 | -0.589 | -0.491 | -0.365 | inactive
FZD8 | 0.431 | -0.204 | -0.556 | inactive
SERF2 | -0.577 | -0.214 | -0.773 | inactive
PLEKHA4 | -1.26 | -1.38 | -1.36 | inactive
PHF14 | 0.54 | 0.288 | 1.1 | inactive
PCSK4 | 0.892 | -0.16 | 0.291 | inactive
MARCHF4 | -1.14 | 0.405 | -0.434 | inactive
UBA6 | -1.28 | 0.844 | -0.391 | inactive
LOC440151 (retired record) | 0.74 | 0.509 | 0.234 | inactive
PIWIL2 | -0.509 | 0.271 | -0.803 | inactive
MAPK3 | -0.819 | -0.117 | 0.369 | inactive
TULP2 | 1.84 | 0.188 | 0.0313 | inactive
SCGB3A1 | 1.2 | -0.373 | -0.0313 | inactive
LOC440702 (retired record) | 2.71 | 2.87 | 2.8 | active
DUSP6 | 1.66 | 2.77 | 2.98 | active
LOC441015 (retired record) | -0.964 | -1.34 | -1 | inactive
RIMS1 | 0.652 | 0.3 | 1.42 | inactive
RD3 | 1.28 | 1.13 | 0.864 | inactive
SLC9A7 | 0.451 | 0.126 | 0.846 | inactive
CRHR1 | -1.07 | -0.696 | -0.674 | inactive
PLA2R1 | 1.53 | 1.5 | 1.22 | inactive
KCNK10 | -0.745 | -0.909 | -0.222 | inactive
NXPH1 | 0.618 | 1.1 | -2.31 | inactive
ZKSCAN1 | -0.678 | 0.492 | -1.09 | inactive
DSPP | 0.596 | -1.22 | -0.251 | inactive
ITFG2-AS1 | -1.01 | -1.05 | -1.13 | inactive
TSLIG3C | -1.2 | -0.318 | -1.02 | inactive
KCNC2 | 0.321 | 0.498 | 0.262 | inactive
TNFRSF10A-DT | 1.18 | 0.906 | 1.14 | inactive
TPO | -0.915 | -0.958 | -1.2 | inactive
MEIOB | -1.9 | -1.71 | -1.83 | inactive
OR7G1 | -0.441 | -0.9 | -1.28 | inactive
LOC402095 (retired record) | -0.979 | -1.34 | -0.739 | inactive
OR5AK2 | -0.571 | -0.476 | -0.898 | inactive

Active calls (from the list above):
gene | robust z-score, replicate 1 | robust z-score, replicate 2 | robust z-score, replicate 3 | call
SREBF2 | 4.06 | 2.68 | 3.27 | active
ZSCAN10 | 1.99 | 2.15 | 1.46 | active
PDPR2P | 2.19 | 2.17 | 2.33 | active
HSPA1A | 3.3 | 2.94 | 2.78 | active
LOC440702 (retired record) | 2.71 | 2.87 | 2.8 | active
DUSP6 | 1.66 | 2.77 | 2.98 | active
